# pIC50: −log10 of the molar value.
# System: MDA-MB-231
# Assay: Cytotoxicity MTT/MTS assay, MDA-MB-231
# Assay type: cell-based
# Settings: MDA-MB-231 (TNBC) cells
# From the text: FIG. 4A-C depicts the cytotoxicity of PDoxC, obtained by […], for three cell lines (MDA-MB-231 [FIG. 4A], MDA-MB-468 [FIG. 4B], and MCF-10A [FIG. 4C]). Cell viability is plotted against drug concentration (PDoxC or Dox) to obtain IC50 values. Each experimental point was done in duplicates or triplicates and the experiment was repeated once.
# Next, the cytotoxicity of the peptide 31 PDoxC was compared to the DOX (free drug) using MTS assay (FIG. 4A-C). Three cell lines were used, two TNBC cell lines (MDA-MB-231 and MDA-MB-468) and one non-cancerous mammary epithelial MCF-10A cell line. […] This peptide 31 PDoxC is very promising as this level of selectivity has never been observed with previously reported peptide-drug conjugates.
compound,measurement,value
"COc1cccc2c1C(=O)c1c(O)c3c(c(O)c1C2=O)C[C@@](O)(C(=O)CO)C[C@@H]3O[C@H]1C[C@H](N)[C@H](O)[C@H](C)O1 [Free Dox, doxorubicin, reference compound]",pIC50,5.73

# From patent US20240100178A1, “EGFR TARGETING PEPTIDE CONJUGATE” (Chapman University, priority 2022, published 2024)
